According to the supplement of paper PMC11006884:
The entries are a selection whose mix differs from that of the whole data set.

Chains of the proteins cited; added tags and fusions are not shown. Lines headed by an entry give the natural chain unless they say otherwise; changes in a name come on top.
UniProt P43243: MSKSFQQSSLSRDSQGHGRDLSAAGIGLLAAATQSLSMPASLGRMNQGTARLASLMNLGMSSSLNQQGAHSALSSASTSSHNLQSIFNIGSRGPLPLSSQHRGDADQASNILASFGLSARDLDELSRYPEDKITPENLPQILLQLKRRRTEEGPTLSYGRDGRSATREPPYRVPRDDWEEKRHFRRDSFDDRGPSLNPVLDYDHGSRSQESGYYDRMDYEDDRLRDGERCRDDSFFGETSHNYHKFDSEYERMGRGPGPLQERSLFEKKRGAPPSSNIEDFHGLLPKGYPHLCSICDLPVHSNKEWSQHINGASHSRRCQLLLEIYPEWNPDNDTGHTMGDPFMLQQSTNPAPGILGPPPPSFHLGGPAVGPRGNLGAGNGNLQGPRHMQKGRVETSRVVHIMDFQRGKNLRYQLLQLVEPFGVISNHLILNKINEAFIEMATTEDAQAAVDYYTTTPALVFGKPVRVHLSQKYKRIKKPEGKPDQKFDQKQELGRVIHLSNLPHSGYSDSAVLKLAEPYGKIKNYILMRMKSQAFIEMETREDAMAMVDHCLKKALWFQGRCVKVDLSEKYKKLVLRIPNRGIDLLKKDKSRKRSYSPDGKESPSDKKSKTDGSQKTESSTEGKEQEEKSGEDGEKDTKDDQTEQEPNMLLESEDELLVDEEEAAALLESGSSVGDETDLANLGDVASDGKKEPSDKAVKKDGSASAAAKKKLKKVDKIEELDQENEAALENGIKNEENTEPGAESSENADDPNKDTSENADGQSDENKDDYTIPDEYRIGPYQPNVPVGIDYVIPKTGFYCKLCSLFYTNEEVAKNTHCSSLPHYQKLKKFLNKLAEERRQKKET
UniProt P40926: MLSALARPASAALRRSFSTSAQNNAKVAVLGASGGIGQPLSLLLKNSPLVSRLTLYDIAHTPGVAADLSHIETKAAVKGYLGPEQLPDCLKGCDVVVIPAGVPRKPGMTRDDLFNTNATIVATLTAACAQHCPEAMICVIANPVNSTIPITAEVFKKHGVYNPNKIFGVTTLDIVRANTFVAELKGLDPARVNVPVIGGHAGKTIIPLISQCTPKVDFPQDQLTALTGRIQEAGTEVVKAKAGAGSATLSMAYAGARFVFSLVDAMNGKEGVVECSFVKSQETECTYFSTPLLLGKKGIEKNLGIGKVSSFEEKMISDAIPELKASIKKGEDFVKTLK
UniProt P41240: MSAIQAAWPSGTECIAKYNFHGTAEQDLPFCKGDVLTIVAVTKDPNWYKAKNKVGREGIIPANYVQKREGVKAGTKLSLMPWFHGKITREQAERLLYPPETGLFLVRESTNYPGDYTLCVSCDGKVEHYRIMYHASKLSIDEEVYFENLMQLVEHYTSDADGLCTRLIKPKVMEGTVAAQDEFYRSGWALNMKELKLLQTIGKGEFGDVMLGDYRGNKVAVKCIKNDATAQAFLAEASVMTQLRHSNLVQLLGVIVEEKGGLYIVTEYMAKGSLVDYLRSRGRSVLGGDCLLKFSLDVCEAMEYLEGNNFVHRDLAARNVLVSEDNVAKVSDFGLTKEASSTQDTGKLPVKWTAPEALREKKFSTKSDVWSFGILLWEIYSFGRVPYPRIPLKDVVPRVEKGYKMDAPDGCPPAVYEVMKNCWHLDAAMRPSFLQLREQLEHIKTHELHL
UniProt P42702: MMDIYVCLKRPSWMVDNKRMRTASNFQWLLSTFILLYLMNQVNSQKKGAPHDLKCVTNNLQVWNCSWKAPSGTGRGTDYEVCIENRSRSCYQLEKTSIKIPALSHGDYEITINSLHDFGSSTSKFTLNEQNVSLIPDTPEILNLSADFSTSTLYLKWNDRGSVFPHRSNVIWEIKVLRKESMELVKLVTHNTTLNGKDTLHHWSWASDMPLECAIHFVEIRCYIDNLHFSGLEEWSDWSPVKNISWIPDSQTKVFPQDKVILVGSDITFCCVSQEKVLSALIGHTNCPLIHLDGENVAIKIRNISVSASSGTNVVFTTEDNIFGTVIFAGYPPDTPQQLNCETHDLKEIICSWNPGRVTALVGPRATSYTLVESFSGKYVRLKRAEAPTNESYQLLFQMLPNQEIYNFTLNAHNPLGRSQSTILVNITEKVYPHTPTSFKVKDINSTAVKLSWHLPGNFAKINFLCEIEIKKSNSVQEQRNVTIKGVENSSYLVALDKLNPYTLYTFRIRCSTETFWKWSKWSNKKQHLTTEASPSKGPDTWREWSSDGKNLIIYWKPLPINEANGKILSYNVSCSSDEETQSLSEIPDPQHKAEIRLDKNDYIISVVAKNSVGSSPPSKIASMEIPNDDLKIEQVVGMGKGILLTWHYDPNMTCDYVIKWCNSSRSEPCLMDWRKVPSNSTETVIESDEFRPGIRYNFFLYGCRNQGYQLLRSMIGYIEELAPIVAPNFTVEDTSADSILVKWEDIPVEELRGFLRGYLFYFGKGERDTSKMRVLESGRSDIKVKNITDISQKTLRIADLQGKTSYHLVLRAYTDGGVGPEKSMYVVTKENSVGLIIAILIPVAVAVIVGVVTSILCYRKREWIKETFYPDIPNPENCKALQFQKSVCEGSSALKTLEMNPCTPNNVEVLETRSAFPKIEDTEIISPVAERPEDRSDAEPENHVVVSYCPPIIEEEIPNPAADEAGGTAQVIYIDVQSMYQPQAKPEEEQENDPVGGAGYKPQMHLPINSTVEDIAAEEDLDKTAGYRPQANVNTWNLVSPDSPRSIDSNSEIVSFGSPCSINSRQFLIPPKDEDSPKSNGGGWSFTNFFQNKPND
UniProt P42166: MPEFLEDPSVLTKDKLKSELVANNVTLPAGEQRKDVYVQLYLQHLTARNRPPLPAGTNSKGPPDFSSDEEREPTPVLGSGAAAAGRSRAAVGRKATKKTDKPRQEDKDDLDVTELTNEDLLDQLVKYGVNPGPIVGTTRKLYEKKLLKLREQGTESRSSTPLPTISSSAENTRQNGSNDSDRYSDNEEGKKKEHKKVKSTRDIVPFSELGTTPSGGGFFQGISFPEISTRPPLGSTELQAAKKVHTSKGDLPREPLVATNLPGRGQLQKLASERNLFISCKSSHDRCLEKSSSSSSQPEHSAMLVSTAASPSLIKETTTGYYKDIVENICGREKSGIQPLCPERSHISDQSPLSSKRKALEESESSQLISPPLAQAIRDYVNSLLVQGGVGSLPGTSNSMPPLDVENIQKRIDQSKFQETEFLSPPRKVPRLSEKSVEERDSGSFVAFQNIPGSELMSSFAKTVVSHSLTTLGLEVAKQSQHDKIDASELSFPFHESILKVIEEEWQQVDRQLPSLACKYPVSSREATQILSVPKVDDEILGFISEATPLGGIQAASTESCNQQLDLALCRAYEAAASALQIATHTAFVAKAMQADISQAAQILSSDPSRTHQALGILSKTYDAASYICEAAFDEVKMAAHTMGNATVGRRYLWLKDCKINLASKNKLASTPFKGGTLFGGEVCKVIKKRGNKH
UniProt P42771, whole entry: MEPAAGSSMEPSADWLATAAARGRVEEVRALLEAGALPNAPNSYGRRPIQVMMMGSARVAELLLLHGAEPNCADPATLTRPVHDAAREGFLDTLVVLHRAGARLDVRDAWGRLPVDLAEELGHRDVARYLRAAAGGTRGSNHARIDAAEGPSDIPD
UniProt P40424: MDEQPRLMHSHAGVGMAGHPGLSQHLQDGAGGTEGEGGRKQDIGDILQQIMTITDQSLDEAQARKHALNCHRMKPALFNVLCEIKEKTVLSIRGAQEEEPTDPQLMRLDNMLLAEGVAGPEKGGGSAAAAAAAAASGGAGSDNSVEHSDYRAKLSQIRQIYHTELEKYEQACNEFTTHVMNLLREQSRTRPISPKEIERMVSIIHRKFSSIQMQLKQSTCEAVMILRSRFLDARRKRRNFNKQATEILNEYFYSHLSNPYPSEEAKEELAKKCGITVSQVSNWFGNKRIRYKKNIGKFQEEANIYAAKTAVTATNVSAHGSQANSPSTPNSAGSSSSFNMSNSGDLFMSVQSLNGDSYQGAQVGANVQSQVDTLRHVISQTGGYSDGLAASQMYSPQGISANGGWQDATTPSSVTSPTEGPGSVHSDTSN
UniProt P31153, whole entry, looked up: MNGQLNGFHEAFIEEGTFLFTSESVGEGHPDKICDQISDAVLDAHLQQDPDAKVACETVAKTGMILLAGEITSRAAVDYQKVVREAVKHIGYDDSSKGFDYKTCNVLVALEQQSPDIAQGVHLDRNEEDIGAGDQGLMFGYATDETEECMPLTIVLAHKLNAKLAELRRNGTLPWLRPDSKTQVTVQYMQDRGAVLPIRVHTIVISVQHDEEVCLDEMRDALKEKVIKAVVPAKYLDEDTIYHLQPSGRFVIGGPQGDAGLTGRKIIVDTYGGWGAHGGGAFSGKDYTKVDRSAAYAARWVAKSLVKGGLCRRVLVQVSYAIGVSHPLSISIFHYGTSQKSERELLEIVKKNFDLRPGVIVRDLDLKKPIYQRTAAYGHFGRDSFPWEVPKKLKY
UniProt P30153, whole entry, looked up: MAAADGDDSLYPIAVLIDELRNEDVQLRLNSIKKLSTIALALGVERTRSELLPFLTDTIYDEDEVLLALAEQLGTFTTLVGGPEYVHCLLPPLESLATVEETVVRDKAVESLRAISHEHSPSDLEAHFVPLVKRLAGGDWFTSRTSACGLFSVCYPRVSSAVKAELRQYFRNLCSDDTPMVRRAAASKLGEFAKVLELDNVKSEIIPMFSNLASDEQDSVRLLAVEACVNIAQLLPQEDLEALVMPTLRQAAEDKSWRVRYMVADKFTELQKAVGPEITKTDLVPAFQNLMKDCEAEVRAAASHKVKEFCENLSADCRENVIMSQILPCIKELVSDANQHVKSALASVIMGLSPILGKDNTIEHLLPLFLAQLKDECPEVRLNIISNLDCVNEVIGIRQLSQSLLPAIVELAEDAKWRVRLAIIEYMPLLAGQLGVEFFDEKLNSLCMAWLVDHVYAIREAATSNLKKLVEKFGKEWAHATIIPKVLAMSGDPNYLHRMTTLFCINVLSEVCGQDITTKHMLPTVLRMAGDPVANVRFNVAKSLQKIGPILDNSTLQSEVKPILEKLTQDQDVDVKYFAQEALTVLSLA
UniProt P34932: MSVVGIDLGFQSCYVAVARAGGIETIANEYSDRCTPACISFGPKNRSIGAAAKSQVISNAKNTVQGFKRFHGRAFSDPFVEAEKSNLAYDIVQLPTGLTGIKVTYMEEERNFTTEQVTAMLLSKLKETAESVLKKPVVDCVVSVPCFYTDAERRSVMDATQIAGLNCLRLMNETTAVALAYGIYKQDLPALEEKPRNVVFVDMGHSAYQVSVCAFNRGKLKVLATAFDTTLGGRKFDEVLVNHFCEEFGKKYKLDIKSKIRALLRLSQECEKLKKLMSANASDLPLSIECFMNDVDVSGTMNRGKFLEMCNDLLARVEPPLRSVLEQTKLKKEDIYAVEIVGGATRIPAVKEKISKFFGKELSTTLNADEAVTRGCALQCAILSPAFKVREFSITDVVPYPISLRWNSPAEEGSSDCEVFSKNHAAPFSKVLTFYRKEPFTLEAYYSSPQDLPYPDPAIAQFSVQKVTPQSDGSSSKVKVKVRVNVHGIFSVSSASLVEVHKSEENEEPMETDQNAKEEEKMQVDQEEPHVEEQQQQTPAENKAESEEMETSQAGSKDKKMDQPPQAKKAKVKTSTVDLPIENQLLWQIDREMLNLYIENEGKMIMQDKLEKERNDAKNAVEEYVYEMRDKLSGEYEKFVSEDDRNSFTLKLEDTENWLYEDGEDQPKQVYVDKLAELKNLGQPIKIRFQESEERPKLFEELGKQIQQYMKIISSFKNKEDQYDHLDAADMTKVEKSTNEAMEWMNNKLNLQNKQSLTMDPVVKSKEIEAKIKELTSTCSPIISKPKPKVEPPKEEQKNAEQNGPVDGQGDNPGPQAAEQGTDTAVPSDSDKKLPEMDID
UniProt P35754: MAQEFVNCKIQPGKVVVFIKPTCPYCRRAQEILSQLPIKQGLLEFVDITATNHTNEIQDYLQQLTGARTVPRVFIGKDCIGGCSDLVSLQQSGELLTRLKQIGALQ
UniProt P31948, whole entry, looked up: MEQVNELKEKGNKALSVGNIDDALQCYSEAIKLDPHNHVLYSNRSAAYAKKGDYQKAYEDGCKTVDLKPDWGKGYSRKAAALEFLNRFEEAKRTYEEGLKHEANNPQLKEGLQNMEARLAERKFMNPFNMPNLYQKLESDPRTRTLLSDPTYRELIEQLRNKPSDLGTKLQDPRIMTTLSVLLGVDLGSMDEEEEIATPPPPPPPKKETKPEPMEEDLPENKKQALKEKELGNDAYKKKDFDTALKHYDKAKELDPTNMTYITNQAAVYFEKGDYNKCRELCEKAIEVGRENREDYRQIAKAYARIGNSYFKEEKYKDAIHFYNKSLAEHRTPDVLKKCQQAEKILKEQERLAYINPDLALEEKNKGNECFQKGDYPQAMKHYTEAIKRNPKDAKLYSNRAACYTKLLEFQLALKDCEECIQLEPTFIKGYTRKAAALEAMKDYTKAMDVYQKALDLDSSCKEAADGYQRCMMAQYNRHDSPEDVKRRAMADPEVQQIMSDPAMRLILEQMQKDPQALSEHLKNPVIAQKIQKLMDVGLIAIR

What follows are targets tested with COC(=O)C#Cc1ccccc1 [methyl 3-phenylpropiolate] (assay: log2 ratio of iodoacetamide-alkyne labeling of the cysteine site, DMSO over compound (competition); higher = stronger covalent engagement of the cysteine by the compound, active = 1 or more). Conditions: 500 µM; treatment time 1 h; system: HEK293T cell lysate.
Summary of the method: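 Electrophile (500 µM) or vehicle was added to HEK293T lysate (2 mg/mL) for 1 h at ambient temperature before iodoacetamide alkyne labelling (1 h) and click coupling to sCIP-TMT reagents. After pooling, overnight trypsin digestion at 37 °C, streptavidin enrichment and acid elution, peptides were measured by Orbitrap Eclipse LC-MS/MS with FAIMS and quantified in FragPipe. Each cysteine's log2 competition ratio compares mean control-channel with mean compound-channel reporter intensity, control over compound. Data came from duplicate channels across three replicates, excluding cysteines quantified in only one replicate.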

log2 ratio of iodoacetamide-alkyne labeling, inactive:
CAP2 C32 (UniProt P40123) 0.397
LRPPRC C484 (UniProt P42704) 0.184
TXLNA C523 (UniProt P40222) -0.0161
RFC2 C255 (UniProt P35250) 0.0817
MATR3 C230 (UniProt P43243) 0.346
MDH2 C89 (UniProt P40926) 0.21
DCTD C60 (UniProt P32321) 0.37
CA8 C200 (UniProt P35219) -0.00308
PHB C69 (UniProt P35232) 0.167
MCM4 C212 (UniProt P33991) 0.507
CSK C31 (UniProt P41240) -0.0267
LRPPRC C130 (UniProt P42704) 0.188
SRI C194 (UniProt P30626) -0.125
LIFR C1061 (UniProt P42702) 0.854
TMPO C518 (UniProt P42166) 0.44
HADHA C322 (UniProt P40939) 0.32
LRPPRC C927 (UniProt P42704) -0.123
RPL13A C38 (UniProt P40429) -0.0858
PDIA3 C244 (UniProt P30101) -0.0511
TTK C395 (UniProt P33981) 0.269
NCAPD3 C1293 (UniProt P42695) 0.714
MCM4 C162 (UniProt P33991) 0.055
UniProt P42771_C72 0.243
P41778 C172 (UniProt P40424) -0.00628
MAT2A C104 (UniProt P31153) 0.274
TMPO C629 (UniProt P42166) -0.0337
PSMC2 C389 (UniProt P35998) 0.151
LRPPRC C113 (UniProt P42704) 0.0698
LRPPRC C1043 (UniProt P42704) 0.0996
PPP2R1A C174 (UniProt P30153) 0.169
HSPA4 C380 (UniProt P34932) -0.192
GLRX C8 (UniProt P35754) 0.315
TMPO C561 (UniProt P42166) 0.208
LONP1 C637 (UniProt P36776) 0.394
STIP1 C26 (UniProt P31948) -0.083
SHMT1 C68 (UniProt P34896) 0.0107

2 records picked at random from the list so far, as already listed:
log2 ratio of iodoacetamide-alkyne labeling, inactive:
TMPO C561 (UniProt P42166) 0.208
TMPO C629 (UniProt P42166) -0.0337

Following part.

log2 ratio of iodoacetamide-alkyne labeling, active:
ACAA2 C116 (UniProt P42765) 1.22
